Results are given in words; binding and its absence hold for the method and conditions named. Some entries that bind do so weakly or less than the wild type.
Legend:
[1] = molecular target: T1, ULBP1 on transduced HEK293 cells (UniProt Q9BZM6); assay: flow cytometry on cells; as a5 but in HEK293T cells (fully intact, complex glycans); Supplementary Figure S3; only the binder purified
T1 sequence: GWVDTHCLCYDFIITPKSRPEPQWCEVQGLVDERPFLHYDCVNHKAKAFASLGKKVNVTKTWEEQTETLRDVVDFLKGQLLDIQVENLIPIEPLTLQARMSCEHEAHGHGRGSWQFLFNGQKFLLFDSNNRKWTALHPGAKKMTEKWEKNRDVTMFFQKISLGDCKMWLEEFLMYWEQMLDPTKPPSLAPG

Protein sequences, listed by entry. Tags and fused reporters are not part of them. Residues count along the entry.
UniProt P26718, residues 73-216: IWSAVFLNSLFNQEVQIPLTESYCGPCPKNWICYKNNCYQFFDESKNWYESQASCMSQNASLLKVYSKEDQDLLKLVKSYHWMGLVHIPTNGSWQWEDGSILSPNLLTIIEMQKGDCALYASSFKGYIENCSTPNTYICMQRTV

[2] = molecular target: T1, ULBP1 on transduced HEK293 cells; assay: flow cytometry on cells; 5 nM NKG2D-Fc with AlexaFluor647 anti-human IgG F(ab')2 on ULBP1 or ULBP1/U20 HEK293S GnTI cells, on ice 30 minutes; only the binder purified
[3] = molecular target: T2, ULBP3 on transduced HEK293 cells (UniProt Q9BZM4); assay: flow cytometry on cells; ULBP1 (or ULBP3) HEK293 cells pretreated with sU20 at various concentrations for 5 minutes on ice, then stained with 5 nM NKG2D-Fc; only the binder purified
T2 sequence: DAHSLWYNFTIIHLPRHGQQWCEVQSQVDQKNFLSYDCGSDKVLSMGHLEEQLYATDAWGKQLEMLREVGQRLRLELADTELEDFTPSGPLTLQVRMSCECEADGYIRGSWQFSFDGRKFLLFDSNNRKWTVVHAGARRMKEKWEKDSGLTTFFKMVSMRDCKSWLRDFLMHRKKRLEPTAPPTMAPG

[4] = molecular target: T1, ULBP1 on transduced HEK293 cells; assay: as above

Measured: binding

NKG2D-Fc (from UniProt P26718 73-216) (Fc fusion)
binds: all assays above
